According to patent publication US7056508:
These are yes or no findings as the source states them, for the method shown. For part of these data: In cells and extracts the contact can be indirect. Some binding calls cover weakened binding; strength is not graded here. One block for each binder: values may come before it.

What was measured:
[1] = target: truncated, catalytically inactive deletion mutant of murine RPTPκ lacking most of the intracellular (PTPase) domain (mouse) (UniProt P35822); experiment: aggregation of transiently transfected S2 cells, Coulter counting
[2] = target: T1, 100 kDa C-terminal cleavage product of murine RPTPκ (mouse) (UniProt P35822); experiment: co-immunoprecipitation: precipitated with antiserum 116, blotted with antiserum 122
T1 sequence: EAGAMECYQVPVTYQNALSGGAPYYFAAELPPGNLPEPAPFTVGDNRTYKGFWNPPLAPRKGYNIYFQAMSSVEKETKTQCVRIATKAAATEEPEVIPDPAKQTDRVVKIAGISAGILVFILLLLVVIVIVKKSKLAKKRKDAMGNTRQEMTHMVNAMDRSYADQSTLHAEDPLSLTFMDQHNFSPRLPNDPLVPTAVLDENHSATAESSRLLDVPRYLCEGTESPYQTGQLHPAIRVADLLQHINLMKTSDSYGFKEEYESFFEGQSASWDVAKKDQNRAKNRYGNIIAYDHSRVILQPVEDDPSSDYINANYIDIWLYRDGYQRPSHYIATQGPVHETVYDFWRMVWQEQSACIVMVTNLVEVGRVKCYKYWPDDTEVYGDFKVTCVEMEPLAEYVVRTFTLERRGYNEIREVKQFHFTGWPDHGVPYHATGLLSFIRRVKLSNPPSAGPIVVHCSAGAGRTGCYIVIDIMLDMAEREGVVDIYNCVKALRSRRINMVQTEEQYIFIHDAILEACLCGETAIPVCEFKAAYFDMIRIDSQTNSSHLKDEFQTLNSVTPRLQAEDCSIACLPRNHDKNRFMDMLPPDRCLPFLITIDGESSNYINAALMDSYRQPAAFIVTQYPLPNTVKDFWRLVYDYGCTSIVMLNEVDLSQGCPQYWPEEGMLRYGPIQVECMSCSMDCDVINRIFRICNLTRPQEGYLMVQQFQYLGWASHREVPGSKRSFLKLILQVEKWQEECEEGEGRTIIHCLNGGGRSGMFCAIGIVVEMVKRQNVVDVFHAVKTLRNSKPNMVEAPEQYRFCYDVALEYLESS

[3] = target: T2, 97 kDa β subunit of human RPTPκ (MCP7) (human) (UniProt Q15262); experiment: co-immunoprecipitation of the 97 kDa band with Ab 116 from MCP7-transfected 293 cells
T2 sequence: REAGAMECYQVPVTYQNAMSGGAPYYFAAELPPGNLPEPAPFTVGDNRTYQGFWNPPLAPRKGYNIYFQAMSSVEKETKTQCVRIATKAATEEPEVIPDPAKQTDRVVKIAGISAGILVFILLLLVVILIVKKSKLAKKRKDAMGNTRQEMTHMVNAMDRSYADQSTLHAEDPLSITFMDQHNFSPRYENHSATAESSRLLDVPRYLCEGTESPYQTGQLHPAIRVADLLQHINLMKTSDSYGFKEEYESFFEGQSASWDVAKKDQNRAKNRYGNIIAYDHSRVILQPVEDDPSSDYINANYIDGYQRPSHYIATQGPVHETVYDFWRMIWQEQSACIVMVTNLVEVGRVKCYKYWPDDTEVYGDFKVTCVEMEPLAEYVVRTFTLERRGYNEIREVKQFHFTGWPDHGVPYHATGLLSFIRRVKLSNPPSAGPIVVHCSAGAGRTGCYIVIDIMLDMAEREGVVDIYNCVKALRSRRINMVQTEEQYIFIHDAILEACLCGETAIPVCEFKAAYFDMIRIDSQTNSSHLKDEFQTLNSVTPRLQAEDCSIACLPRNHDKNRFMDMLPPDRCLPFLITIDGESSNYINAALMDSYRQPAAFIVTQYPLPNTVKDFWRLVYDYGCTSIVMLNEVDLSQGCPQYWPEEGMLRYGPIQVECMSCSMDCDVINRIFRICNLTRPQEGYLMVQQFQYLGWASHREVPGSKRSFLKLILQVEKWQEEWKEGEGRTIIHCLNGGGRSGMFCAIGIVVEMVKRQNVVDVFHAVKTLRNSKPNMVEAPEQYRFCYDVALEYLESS

binding [1]: binds
B1: truncated, catalytically inactive deletion mutant of murine RPTPκ lacking most of the intracellular (PTPase) domain (receptor)
chain: ALGQFSAGGCTFDDGPGACDYHQDLYDDFEWVHVSAQEPHYLPPEMPQGSYMVVDSSNHDPGEKARLQLPTMKENDTHCIDFSYLLYSQKGLNPGTLNILVRVNKGPLANPIWNVTGFTGRDWLRAELAVSTFWPNEYQVIFEAEVSGGRSGYIAIDDIQVLSYPCDKSPHFLRLGDVEVNAGQNATFQCIATGRDAVHNKLWLQRRNGEDIPVAQTKNINHRRFAASFRLQEVTKTDQDLYRCVTQSERGSGVSNFAQLIVREPPRPIAPPQLLGVGPTYLLIQLNANSIIGDGPIILKEVEYRMTSGSWTETHAVNAPTYKLWHLDPDTEYEIRVLLTRPGEGGTGLPGPPLITRTKCAEPMRTPKTLKIAEIQARRIAVDWESLGYNITRCHTFNVTICYHYFRGHNESRADCLDMDPKAPQHVVNHLPPYTNVSLKMILTNPEGRKESEETIIQTDEDVPGPVPVKSLQGTSFENKIFLNWKEPLEPNGIITQYEVSYSSIRSFDPAVPVAGPPQTVSNLWNSTHHVFMHLHPGTTYQFFIRASTVKGFGPATAINVTTNISAPSLPDYEGVDASLNETATTITVLLRPAQAKGAPISAYQIVVEQLHPHRTKREAGAMECYQVPVTYQNALSGGAPYYFAAELPPGNLPEPAPFTVGDNRTYKGFWNPPLAPRKGYNIYFQAMSSVEKETKTQCVRIATKAAATEEPEVIPDPAKQTDRVVKIAGISAGILVFILLLLVVIVIVKKSKLAKKRKDAMGNTRQEMTHMVNAMDRSYADQSTLHAEDPLSLTFMDQHNFSPRLPNDPLVPTAVLDENHSATAESSRLLDVPRYLCEGTESPYQTGQLHPAIRVADLLQHINLMKTSDSYGFKEEYESFFEGQSASWDVAKKDQNRAKNRYGNIIAYDHSRVILQPVEDDPSSDYINANYIDIWLYRDGYQRPSHYIATQGPVHETVYDFWRMVWQEQSACIVMVTNLVEVGRVKCYKYWPDDTEVYGDFKVTCVEMEPLAEYVVRTFTLERRGYNEIREVKQFHFTGWPDHGVPYHATGLLSFIR

binding [2]: binds
B2: 110 kDa N-terminal cleavage product of murine RPTPκ (receptor)
chain: ALGQFSAGGCTFDDGPGACDYHQDLYDDFEWVHVSAQEPHYLPPEMPQGSYMVVDSSNHDPGEKARLQLPTMKENDTHCIDFSYLLYSQKGLNPGTLNILVRVNKGPLANPIWNVTGFTGRDWLRAELAVSTFWPNEYQVIFEAEVSGGRSGYIAIDDIQVLSYPCDKSPHFLRLGDVEVNAGQNATFQCIATGRDAVHNKLWLQRRNGEDIPVAQTKNINHRRFAASFRLQEVTKTDQDLYRCVTQSERGSGVSNFAQLIVREPPRPIAPPQLLGVGPTYLLIQLNANSIIGDGPIILKEVEYRMTSGSWTETHAVNAPTYKLWHLDPDTEYEIRVLLTRPGEGGTGLPGPPLITRTKCAEPMRTPKTLKIAEIQARRIAVDWESLGYNITRCHTFNVTICYHYFRGHNESRADCLDMDPKAPQHVVNHLPPYTNVSLKMILTNPEGRKESEETIIQTDEDVPGPVPVKSLQGTSFENKIFLNWKEPLEPNGIITQYEVSYSSIRSFDPAVPVAGPPQTVSNLWNSTHHVFMHLHPGTTYQFFIRASTVKGFGPATAINVTTNISAPSLPDYEGVDASLNETATTITVLLRPAQAKGAPISAYQIVVEQLHPHRTKR

binding [3]: binds
B3: 116 kDa α subunit of human RPTPκ (MCP7) (receptor)
chain: PWPLLGSAQGQFSAGGCTFDDGPGACDYHQDLYDDFEWVHVSAQEPHYLPPEMPQGSYMIVDSSDHDPGEKARLQLPTMKENDTHCIDFSYLLYSQKGLNPGTLNILVRVNKGPLANPIWNVTGFTGRDWLRAELAVSTFWPNEYQVIFEAEVSGGRSGYIAIDDIQVLSYPCDKSPHFLRLGDVEVNAGQNATFQCIATGRDAVHNKLWLQRRNGEDIPVAQTKNINHRRFAASFRLQEVTKTDQDLYRCVTQSERGSGVSNFAQLIVREPPRPIAPPQLLGVGPTYLLIQLNANSIIGDGPIILKEVEYRMTSGSWTETHAVNAPTYKLWHLDPDTEYEIRVLLTRPGEGGTGLPGPPLITRTKCAEPMRTPKTLKIAEIQARRIAVDWESLGYNITRCHTFNVTICYHYFRGHNESKADCLDMDPKAPQHVVNHLPPYTNVSLKMILTNPEGRKESEETIIQTDEDVPGPVPVKSLQGTSFENKIFLNWKEPLDPNGIITQYEISYSSIRSFDPAVPVAGPPQTVSNLWNSTHHVFMHLHPGTTYQFFIRASTVKGFGPATAINVTTNISAPTLPDYEGVDASLNETATTITVLLRPAQAKGAPISAYQIVVEELHP
